Laboratory results as given in publication PMC3432625.
Results are given in words; binding and its absence hold for the method and conditions named. Binding seen in cells or lysates may run through a third protein. Some entries that bind do so weakly or less than the wild type. Sequences can lack the tags named with a protein.

Molecular target: T1, α-DG-K500-myc (myc-tagged α-dystroglycan subunit from the construct DG-K500-myc^GFP) (murine), Q62165
T1 chain: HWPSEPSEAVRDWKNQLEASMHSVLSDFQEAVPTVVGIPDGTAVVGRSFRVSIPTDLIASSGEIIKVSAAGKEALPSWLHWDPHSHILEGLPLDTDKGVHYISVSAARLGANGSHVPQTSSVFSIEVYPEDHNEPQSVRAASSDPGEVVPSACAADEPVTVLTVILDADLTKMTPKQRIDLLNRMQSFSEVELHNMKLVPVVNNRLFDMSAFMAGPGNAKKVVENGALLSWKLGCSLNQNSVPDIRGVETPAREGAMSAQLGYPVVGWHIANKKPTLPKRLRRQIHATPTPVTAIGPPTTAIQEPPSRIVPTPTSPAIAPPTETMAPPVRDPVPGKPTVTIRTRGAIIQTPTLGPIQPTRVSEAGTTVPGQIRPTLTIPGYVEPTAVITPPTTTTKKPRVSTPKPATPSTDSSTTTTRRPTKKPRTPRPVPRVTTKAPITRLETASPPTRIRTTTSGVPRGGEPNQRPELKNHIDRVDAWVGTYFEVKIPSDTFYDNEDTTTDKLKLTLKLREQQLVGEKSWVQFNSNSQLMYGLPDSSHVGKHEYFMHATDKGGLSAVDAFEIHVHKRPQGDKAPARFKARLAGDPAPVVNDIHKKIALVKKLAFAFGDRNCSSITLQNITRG
Experiment: co-IP; magnetic beads conjugated with an anti-myc antibody (µMACS Epitope Tag Protein Isolation Kit), 1 ml total protein extract (PBS, 1 % Triton X-100) of 293-Ebna cells transfected with DG-K500-myc^GFP, 30 min at room temperature; Western blot with anti β-DG antibody
Conditions: remark: other sources report otherwise

B1: β-DG-GFP (β-dystroglycan subunit fused to GFP, from the construct DG-K500-myc^GFP), Q62165 652-893 (protein)
chain: SIVVEWTNNTLPLEPCPKEQIIGLSRRIADENGKPRPAFSNALEPDFKALSIAVTGSGSCRHLQFIPVAPPSPGSSAAPATEVPDRDPEKSSEDDVYLHTVIPAVVVAAILLIAGIIAMICYRKKRKGKLTLEDQATFIKKGVPIIFADELDDSKPPPSSSMPLILQEEKAPLPPPEYPNQSMPETTPLNQDTVGEYTPLRDEDPNAPPYQPPPPFTAPMEGKGSRPKNMTPYRSPPPYVPP
modifications: here or on the partner: fully glycosylated (120 kDa band)
B1 was tested, and the binding was “binds”.
